These are yes or no findings as the source states them, for the method shown. Some results given as binding are weak or reduced against the parent protein; the word gives no strength.

For the first test, the target named is T1, dried fibrin (UniProt P02671 36-629; P02675 45-491; P02679 27-437, limits assumed).
T1 construct: Polymerised fibrin made in 96-well plates from fibrinogen and thrombin, dried at 37 C and rehydrated; also called (rehydrated) dried fibrin; fibrin target
T1 sequence (looked up) 1: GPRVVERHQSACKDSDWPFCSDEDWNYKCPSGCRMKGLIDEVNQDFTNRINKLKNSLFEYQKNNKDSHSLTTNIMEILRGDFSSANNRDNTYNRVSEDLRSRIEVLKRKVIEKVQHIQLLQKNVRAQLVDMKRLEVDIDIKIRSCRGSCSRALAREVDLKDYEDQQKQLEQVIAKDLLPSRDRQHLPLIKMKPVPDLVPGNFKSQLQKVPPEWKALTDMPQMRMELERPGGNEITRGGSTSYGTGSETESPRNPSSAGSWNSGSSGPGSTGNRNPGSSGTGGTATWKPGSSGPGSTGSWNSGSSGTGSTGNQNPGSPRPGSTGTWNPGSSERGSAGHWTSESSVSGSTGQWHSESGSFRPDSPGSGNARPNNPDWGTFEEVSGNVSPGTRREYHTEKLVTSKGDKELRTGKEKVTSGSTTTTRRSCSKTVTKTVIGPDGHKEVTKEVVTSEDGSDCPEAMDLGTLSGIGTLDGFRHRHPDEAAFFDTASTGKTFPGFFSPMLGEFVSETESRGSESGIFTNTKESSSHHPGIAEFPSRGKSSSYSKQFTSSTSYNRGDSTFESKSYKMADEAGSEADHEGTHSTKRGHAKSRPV
T1 sequence (looked up) 2: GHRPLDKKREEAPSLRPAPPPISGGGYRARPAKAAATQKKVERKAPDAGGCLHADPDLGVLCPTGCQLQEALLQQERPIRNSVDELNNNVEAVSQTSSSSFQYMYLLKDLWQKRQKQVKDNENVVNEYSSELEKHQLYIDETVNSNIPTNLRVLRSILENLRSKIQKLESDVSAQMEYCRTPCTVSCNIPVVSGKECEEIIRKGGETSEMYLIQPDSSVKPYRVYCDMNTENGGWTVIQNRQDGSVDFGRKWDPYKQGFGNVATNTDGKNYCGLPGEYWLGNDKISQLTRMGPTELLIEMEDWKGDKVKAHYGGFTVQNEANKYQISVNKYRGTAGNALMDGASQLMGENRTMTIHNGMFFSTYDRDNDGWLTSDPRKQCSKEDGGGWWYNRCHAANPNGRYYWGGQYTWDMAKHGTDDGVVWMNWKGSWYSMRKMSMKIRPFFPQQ
T1 sequence (looked up) 3: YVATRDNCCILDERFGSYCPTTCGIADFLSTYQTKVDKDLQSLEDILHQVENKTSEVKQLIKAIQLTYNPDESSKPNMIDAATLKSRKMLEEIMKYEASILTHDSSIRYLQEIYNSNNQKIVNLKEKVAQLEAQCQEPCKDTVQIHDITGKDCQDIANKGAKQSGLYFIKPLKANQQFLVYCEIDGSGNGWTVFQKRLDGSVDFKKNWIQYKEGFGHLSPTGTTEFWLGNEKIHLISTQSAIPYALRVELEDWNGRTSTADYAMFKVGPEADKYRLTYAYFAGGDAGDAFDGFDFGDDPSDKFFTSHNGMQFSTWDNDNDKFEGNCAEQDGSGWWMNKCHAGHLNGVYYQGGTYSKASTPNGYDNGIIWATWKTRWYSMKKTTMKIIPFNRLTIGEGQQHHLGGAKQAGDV
Put plainly: phage binding assays as for the TN7 library.
Regarding NHGCYNSYGVPYCDYS (peptide, not shown: large carriers), the binding entry was “binds”.

With QWECPYGLCWIQ (peptide, not shown: large carriers), the binding entry is “binds”.

On to RFLCYDSYYHWWCSHH (peptide, not shown: large carriers), for which the binding entry is on record as “binds”.

Regarding WFHCPYDLCHIL (peptide, not shown: large carriers), the binding result is “binds”.

The target in the next test is T1, dried fibrin. Put plainly: phage ELISA on dried fibrin plate, anti-M13-HRP; relative binding. For orientation: ELISA stands for enzyme-linked immunosorbent assay.
For LSCDYYGTCLR (peptide, not shown: large carriers) [TN7 isolate 2, phage-displayed …], the binding entry was “binds”.

HDCQYYGTCLH (peptide, not shown: large carriers) [TN7 isolate 11, phage-displayed …]: the binding result is recorded as “binds”.

Regarding DPCSYYGTCLH (peptide, not shown: large carriers) [TN7 isolate 4, phage-displayed …], the binding entry was “binds”.

As for FSCWYSLHCHR (peptide, not shown: large carriers) [TN7 isolate 12, phage-displayed …], the binding entry is “binds”.

Take RSCNYYGTCLH (peptide, not shown: large carriers) [TN7 isolate 9, phage-displayed …]: the binding result was “binds”.

In the case of LACHYYGTCLH (peptide, not shown: large carriers) [TN7 isolate 7, phage-displayed …], the binding result is “binds”.

Consider DGCHYYGTCLH (peptide, not shown: large carriers) [TN7 isolate 8, phage-displayed …], for which the binding result is recorded as “binds”.

Another test deals with dried fibrin (UniProt P02671). The description is as above.
Consider LPCDYYGTCLD (peptide, not shown: large carriers) [TN7 isolate 3, phage-displayed …], for which the binding result was “binds”.

Take RPCNYYGTCLH (peptide, not shown: large carriers) [TN7 isolate 10, phage-displayed …]: the binding entry was “binds”.

Take FACHYYGTCLH (peptide, not shown: large carriers) [TN7 isolate 6, phage-displayed …]: the binding entry is “binds”.

On to LPCSYYGTCLH (peptide, not shown: large carriers) [TN7 isolate 5, phage-displayed …], for which the binding result was “binds”.

For the molecule RPCDYYGTCFD (peptide, not shown: large carriers) [TN7 isolate 1, phage-displayed …], the binding entry is recorded as “binds”.

Values taken from US20050261472A1, “Binding moieties for fibrin” (Dyax Corp., priority 1999, published 2005).
